Results deposited as PubChem BioAssay AID686943 (Drosophila RNAi Screening Center, 2013).
Assay: 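Search across the genome for regulators of signalling from receptor tyrosine kinase to ERK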 (primary screen). Cell system: Drosophila S2R+ haemocyte-like cells expressing YFP-tagged ERK (Rolled). Reagent: long dsRNA against Drosophila genes. Challenge: insulin stimulation versus unstimulated cells; dose and duration not given. Detection: 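Antibody staining for doubly phosphorylated ERK divided by ERK-YFP signal, as plate z-scores, in insulin-treated and untreated cells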. Scale: replicate 1, z-score of dpERK with insulin and replicate 2, z-score of dpERK with insulin: higher = more active ERK per ERK-YFP after insulin; replicate 1, z-score of dpERK under basal conditions: higher = more basal active ERK per ERK-YFP; replicate 1, z-score of ERK-YFP with insulin: higher = more YFP-tagged ERK signal.
The screen tested about 23,000 reagents; this is a random part of those with a known target gene and a result. 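Extra replicates exist only for a retested subset of genes; insulin dose and duration not given; both raised and lowered dpERK matter.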 Names joined by + are all predicted targets of the reagent. Reagent sequences are not shown. Not given: the amount of reagent, the time to read-out.

no.	gene knocked down	dsRNA	replicate 1, z-score of dpERK with insulin	replicate 2, z-score of dpERK with insulin	replicate 1, z-score of dpERK under basal conditions	replicate 1, z-score of ERK-YFP with insulin
1	cav (GeneID 42881)	DRSC15995	0.32	-0.29	-0.43	0.82
2	CG13488 (GeneID 37496)	DRSC04133	-0.37	-0.7	0.25	0.4
3	Egm (GeneID 36242)	DRSC07319	0.84	0.37	0.54	-0.08
4	Egm (GeneID 36242)	DRSC22860	0.54	1.67	-1.01	0.19
5	CG32074 (GeneID 317842)	DRSC22246	-0.26	0.25	0.59	-0.22
6	Lcp65Af (GeneID 45017)	DRSC11213	0.81	0.86	0.17	-0.28
7	stil (GeneID 36380)	DRSC07699	-0.15	0.26	0.22	0.25
8	Art3 (GeneID 41837)	DRSC16065	0.08	-0.02	0.41	-0.19
9	CG13127 (GeneID 34335)	DRSC02223	-0.23	0.52	0.37	0.23
10	SIDL (GeneID 41833)	DRSC16077	-0.74	0.04	3.83	0.66
11	CG10621 (GeneID 35152)	DRSC02078	0.39	0.62	0.5	0.25
12	CG3515 (GeneID 33437)	DRSC00609	-0.82	-0.25	-0.35	0.21
13	CG33695 + cana	DRSC01163	-1.04	-1.31	-2.07	0.99
14	CG33695 + cana	DRSC03503	0.77	0.34	0.91	-0.83
15	CG11085 (GeneID 32213)	DRSC19374	1.16	0.56	1.07	-0.18
16	CG11085 (GeneID 32213)	DRSC22832	0.74	0.91	-0.64	-0.51
17	Adk1 (GeneID 41476)	DRSC15514	-0.23	0.55	0.09	0.03
18	msd5 (GeneID 38156)	DRSC08560	0.02	1.33	0.41	-1.71
19	Grx5 (GeneID 32410)	DRSC19593	0.12	2.05	0.36	0.28
20	Efhc1.1 (GeneID 32528)	DRSC20135	-1.14	-0.6	0.16	1.28
21	CG14562 (GeneID 40439)	DRSC11723	-0.1	0.32	-0.42	0.63
22	CG16815 (GeneID 34725)	DRSC02521	0.12	-0.01	0.01	-0.11
23	CG14676 (GeneID 40729)	DRSC12262	1.33	1.57	0.59	-0.02
24	Tom20 (GeneID 40189)	DRSC10899	0.1	0.12	1.54	0.58
25	CG11164 (GeneID 32323)	DRSC19392	0.04	0.03	-0.29	0.3
26	CG30411 (GeneID 246600)	DRSC04004	0.7	0.08	0.38	0.16
27	robo2 (GeneID 44522)	DRSC00377	0.87	-0.56	-0.11	-0.37
28	robo2 (GeneID 44522)	DRSC00378	0.32	-0.66	-0.91	0.18
29	robo2 (GeneID 44522)	DRSC00686	0.3	-0.18	0.17	0.1
30	robo2 (GeneID 44522)	DRSC00691	1.65	0.76	0.24	0.4
31	CREG (GeneID 42092)	DRSC16595	0.05	0.51	0.81	0.05
32	Arp1 (GeneID 41566)	DRSC14118	-0.31	-0.38	-0.05	0.17
33	phyl (GeneID 36606)	DRSC07663	-0.17	-0.11	0.28	0.22
34	Qsox4 (GeneID 318720)	DRSC14224	0.38	0.29	0.19	-0.04
35	anne (GeneID 317815)	DRSC17103	1.3	3.58	3.03	-2.66
36	CG15019 (GeneID 38542)	DRSC08473	0.12	-0.65	-0.63	0.04
37	Cmtr1 (GeneID 31355)	DRSC18400	0.3	1.1	0.92	-0.28
38	CG8086 (GeneID 34131)	DRSC03078	0.6	0.04	-0.17	-0.74
39	CG8086 (GeneID 34131)	DRSC03079	0.29	0.28	-0.43	0.43
40	ATPsynC (GeneID 43693)	DRSC15236	-1.68	-0.99	0.43	0.98
41	Galphaf (GeneID 39861)	DRSC11171	-0.07	-0.9	0.04	-0.84
42	tant (GeneID 44785)	DRSC11401	0.51	1.35	-0.21	1.14
43	Chc (GeneID 32537)	DRSC20229	0.25	0.96	1.12	0.3
44	eIF1A (GeneID 44260)	DRSC16937	-1.4	-2.2	-4.61	-0.77
45	RpS28b (GeneID 31897)	DRSC18258	0.01	-2.1	-0.32	-3.62
46	Saf6 (GeneID 33255)	DRSC00633	0.96	-0.24	-0.1	-1.85
47	CG12863 (GeneID 36623)	DRSC06203	0.96	0.27	0.22	-0.58
48	CG9631 (GeneID 41729)	DRSC14137	-0.04	-0.15	-0.7	-0.29
49	CG14326 (GeneID 42120)	DRSC14805	-0.24	-1.29	-0.6	0.53
50	CG13527 (GeneID 37615)	DRSC04169	-0.09	0.55	-0.06	0.44
51	Saysd1 (GeneID 43029)	DRSC14664	-0.12	-0.19	0.03	0.38
52	sage (GeneID 41105)	DRSC14580	0.07	0.86	-0.52	0.6
53	Pex13 (GeneID 36462)	DRSC06877	0.16	0.18	-0.61	0.07
54	PolQ (GeneID 41571)	DRSC17006	0.15	0.4	-1.44	-0.63
55	GatA (GeneID 42283)	DRSC16956	0.05	0.02	-0.21	0.52
56	TM9SF3 (GeneID 38635)	DRSC09747	0.47	0.62	0.49	0.76
57	CG5676 (GeneID 34368)	DRSC02875	-0.6	0.39	-1.22	1.01

Ordered by “replicate 1, z-score of dpERK under basal conditions” (lowest first): 3 of the entries above.
gene knocked down	dsRNA	replicate 1, z-score of dpERK with insulin	replicate 2, z-score of dpERK with insulin	replicate 1, z-score of dpERK under basal conditions	replicate 1, z-score of ERK-YFP with insulin
Arp1 (GeneID 41566)	DRSC14118	-0.31	-0.38	-0.05	0.17
Qsox4 (GeneID 318720)	DRSC14224	0.38	0.29	0.19	-0.04
phyl (GeneID 36606)	DRSC07663	-0.17	-0.11	0.28	0.22
